According to paper PMC4152239:
These are yes or no findings as the source states them, for the method shown. In cells and extracts the contact can be indirect. Some entries that bind do so weakly or less than the wild type.

Protein sequences, listed by entry. Tags and fused reporters are not part of them. Residues count along the entry.
UniProt O08852, residues 24-4293: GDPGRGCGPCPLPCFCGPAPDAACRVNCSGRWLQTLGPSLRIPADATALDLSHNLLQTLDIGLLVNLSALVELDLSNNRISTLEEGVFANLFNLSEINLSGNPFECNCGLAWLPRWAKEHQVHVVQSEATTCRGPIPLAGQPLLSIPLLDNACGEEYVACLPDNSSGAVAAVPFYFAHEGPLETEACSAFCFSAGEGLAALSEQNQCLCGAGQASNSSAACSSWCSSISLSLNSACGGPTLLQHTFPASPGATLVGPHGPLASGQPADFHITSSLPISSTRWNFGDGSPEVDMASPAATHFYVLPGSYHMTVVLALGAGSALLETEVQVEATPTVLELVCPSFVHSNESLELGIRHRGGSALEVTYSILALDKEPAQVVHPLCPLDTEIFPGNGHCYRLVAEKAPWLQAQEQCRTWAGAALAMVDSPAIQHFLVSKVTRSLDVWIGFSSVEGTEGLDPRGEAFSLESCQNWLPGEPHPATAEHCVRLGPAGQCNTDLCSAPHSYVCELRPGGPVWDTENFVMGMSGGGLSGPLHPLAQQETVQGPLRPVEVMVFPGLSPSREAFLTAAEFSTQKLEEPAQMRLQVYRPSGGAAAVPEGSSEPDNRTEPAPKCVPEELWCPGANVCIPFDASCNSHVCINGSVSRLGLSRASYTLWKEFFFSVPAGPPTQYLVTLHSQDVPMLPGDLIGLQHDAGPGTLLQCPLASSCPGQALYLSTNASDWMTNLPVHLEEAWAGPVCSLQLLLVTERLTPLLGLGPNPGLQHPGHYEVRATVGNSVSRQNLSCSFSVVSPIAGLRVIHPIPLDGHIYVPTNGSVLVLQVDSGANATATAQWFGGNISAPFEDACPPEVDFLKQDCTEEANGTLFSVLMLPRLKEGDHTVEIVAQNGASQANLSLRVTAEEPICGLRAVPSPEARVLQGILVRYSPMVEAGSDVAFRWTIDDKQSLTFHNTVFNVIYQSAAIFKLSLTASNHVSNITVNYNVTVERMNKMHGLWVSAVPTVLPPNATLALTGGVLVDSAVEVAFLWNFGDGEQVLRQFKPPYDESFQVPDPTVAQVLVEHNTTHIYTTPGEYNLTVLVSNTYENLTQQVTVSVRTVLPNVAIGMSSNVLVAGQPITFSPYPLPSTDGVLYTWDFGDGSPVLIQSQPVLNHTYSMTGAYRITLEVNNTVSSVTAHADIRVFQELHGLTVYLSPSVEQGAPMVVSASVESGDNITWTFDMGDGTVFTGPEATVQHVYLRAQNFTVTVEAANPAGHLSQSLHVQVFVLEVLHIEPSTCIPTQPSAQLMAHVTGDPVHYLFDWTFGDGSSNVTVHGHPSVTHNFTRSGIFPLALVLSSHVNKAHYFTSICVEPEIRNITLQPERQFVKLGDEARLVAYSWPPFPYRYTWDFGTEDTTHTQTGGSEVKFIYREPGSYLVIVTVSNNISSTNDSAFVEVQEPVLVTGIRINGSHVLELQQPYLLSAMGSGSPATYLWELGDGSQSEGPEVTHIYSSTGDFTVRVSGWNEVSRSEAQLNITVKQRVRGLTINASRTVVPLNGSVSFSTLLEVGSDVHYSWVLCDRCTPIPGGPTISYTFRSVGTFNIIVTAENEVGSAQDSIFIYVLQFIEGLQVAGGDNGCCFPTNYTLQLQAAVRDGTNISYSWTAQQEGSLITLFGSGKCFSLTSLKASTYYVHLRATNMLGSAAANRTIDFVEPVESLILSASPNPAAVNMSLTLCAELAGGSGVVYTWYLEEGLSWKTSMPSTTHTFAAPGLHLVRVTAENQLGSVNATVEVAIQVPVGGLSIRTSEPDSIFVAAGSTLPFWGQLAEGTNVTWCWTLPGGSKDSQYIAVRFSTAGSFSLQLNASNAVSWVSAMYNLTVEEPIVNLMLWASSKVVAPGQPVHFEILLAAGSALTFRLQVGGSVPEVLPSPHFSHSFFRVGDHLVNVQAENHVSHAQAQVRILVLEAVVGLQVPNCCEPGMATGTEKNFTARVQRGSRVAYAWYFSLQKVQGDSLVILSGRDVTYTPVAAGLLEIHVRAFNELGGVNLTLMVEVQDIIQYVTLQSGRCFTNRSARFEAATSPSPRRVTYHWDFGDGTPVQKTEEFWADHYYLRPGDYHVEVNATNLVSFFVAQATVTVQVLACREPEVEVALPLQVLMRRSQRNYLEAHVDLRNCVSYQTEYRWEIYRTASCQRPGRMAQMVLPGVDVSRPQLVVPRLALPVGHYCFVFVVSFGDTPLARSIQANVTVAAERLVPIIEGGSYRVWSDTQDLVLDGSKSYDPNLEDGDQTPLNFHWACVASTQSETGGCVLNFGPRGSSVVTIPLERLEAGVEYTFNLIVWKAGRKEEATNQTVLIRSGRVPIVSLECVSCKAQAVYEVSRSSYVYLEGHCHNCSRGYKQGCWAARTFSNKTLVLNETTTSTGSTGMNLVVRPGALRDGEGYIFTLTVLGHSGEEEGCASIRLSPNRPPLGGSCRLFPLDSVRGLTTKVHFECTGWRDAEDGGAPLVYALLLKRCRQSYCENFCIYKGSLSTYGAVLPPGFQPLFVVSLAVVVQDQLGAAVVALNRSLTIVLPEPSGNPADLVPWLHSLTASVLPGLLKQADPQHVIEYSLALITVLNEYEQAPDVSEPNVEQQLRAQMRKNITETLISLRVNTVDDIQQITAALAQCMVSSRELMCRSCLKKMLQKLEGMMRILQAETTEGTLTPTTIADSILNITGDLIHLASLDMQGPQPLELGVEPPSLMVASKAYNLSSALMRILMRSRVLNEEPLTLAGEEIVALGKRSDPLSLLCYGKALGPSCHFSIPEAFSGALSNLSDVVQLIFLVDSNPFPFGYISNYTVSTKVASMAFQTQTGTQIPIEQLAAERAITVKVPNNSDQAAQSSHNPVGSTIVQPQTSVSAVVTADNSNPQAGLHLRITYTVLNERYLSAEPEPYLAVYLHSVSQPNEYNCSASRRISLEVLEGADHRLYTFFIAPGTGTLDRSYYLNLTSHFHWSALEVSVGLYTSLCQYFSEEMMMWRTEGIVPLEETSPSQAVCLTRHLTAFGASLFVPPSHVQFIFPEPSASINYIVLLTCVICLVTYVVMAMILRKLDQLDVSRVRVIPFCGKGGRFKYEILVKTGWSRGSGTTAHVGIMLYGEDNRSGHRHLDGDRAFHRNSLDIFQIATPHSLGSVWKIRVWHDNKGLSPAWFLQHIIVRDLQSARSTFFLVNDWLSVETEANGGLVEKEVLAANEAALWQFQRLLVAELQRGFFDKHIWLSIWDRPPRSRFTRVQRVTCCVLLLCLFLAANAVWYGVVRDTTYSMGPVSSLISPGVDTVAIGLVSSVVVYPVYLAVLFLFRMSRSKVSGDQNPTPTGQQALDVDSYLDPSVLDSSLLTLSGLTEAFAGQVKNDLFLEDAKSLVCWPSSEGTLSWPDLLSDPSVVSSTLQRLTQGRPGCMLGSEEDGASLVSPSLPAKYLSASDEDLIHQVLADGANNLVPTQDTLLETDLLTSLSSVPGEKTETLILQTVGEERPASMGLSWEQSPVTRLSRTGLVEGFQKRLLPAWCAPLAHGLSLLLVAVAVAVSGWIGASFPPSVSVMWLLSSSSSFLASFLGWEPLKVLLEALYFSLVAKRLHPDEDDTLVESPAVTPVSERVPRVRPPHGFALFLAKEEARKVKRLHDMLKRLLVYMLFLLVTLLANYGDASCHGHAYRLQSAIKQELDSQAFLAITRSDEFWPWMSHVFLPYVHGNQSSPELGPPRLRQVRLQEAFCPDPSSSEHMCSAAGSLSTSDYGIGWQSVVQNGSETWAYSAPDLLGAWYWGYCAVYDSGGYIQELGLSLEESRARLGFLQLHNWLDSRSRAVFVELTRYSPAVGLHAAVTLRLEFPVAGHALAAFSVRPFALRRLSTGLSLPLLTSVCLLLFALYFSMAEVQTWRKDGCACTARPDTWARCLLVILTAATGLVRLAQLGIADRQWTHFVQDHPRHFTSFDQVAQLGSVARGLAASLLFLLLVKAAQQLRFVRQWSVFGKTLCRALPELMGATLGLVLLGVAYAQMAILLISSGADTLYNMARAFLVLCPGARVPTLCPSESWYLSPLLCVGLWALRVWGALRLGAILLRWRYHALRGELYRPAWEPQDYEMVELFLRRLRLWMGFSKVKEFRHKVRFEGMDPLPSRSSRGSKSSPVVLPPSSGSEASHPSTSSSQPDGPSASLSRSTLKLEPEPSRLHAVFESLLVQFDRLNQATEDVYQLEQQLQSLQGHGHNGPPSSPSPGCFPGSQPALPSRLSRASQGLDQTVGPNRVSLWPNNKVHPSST

What was measured:
[1] = molecular target: polycystin-1 (human, RCTE cells) (human (endogenous in RCTE)) (UniProt P98161); assay: proximity ligation; Duolink II Rabbit/Mouse Red Kit on polarized RCTE or MO6-G3 cells on coverslips, 5 days post-confluency; antibodies against PC1 (Santa Cruz mAb) and EGFR (GeneTex pAb); control without PC1 antibody negative
[2] = molecular target: polycystin-1 (human, RCTE cells) (human (endogenous in RCTE)) (UniProt P98161); assay: co-IP; PC1 immunoprecipitated with NM002 pAb from lysates of polarized RCTE or MO6-G3 cells (5 days post-confluency); lysis buffer 0.5% NP40, 10 mM Tris-HCl pH 7.4, 150 mM NaCl, 5 mM EDTA, 60 mM octylglucoside; 4°C; immunoblot; normal rabbit IgG as negative control
[3] = molecular target: epidermal growth factor receptor (human, RCTE cells) (human (endogenous in RCTE)) (UniProt P00533); assay: co-IP; EGFR immunoprecipitated with Santa Cruz pAb from lysates of polarized RCTE or MO6-G3 cells (5 days post-confluency); lysis buffer 0.5% NP40, 10 mM Tris-HCl pH 7.4, 150 mM NaCl, 5 mM EDTA, 60 mM octylglucoside; 4°C; immunoblot; normal rabbit IgG as negative control
[4] = molecular target: epidermal growth factor receptor (mouse, MO6-G3 odontoblasts) (mouse (endogenous in MO6-G3)) (UniProt Q01279); assay: as above
[5] = molecular target: polycystin-1 (mouse, MO6-G3 odontoblasts) (mouse (endogenous in MO6-G3)) (UniProt O08852); assay: proximity ligation; Duolink II Rabbit/Mouse Red Kit on polarized RCTE or MO6-G3 cells on coverslips, 5 days post-confluency; antibodies against PC1 (Santa Cruz mAb) and EGFR (GeneTex pAb); control without PC1 antibody negative
[6] = molecular target: polycystin-1 (mouse, MO6-G3 odontoblasts) (mouse (endogenous in MO6-G3)) (UniProt O08852); assay: co-IP; PC1 immunoprecipitated with NM002 pAb from lysates of polarized RCTE or MO6-G3 cells (5 days post-confluency); lysis buffer 0.5% NP40, 10 mM Tris-HCl pH 7.4, 150 mM NaCl, 5 mM EDTA, 60 mM octylglucoside; 4°C; immunoblot; normal rabbit IgG as negative control

## epidermal growth factor receptor (human, RCTE cells) (from UniProt P00533 25-1210)
[1]
  binding: binds
[2]
  binding: binds

## polycystin-1 (human, RCTE cells) (from UniProt P98161 24-4303)
[3]
  binding: binds

## polycystin-1 (mouse, MO6-G3 odontoblasts) (from UniProt O08852 24-4293)
[4]
  binding: binds

## epidermal growth factor receptor (mouse, MO6-G3 odontoblasts) (from UniProt Q01279 25-1210)
[5]
  binding: binds
[6]
  binding: binds
